According to publication PMC10163288:
Some of the results follow.

B1: il2ra_site2_3nfp_sap_18_mot_HHH_b2_02902_af2_000000043_0001_44_57_H_._HHH_b2_05654_0001_0000100001_0000001_0_0001_af2pred_0001_1_af2pred_swapped (protein)
chain: SSSSSDEEEEEVERLLEEAKHTEDEHEVFALLSAALEIALKAGDEELERRVRELSHKLLESSSSS
B2: il2ra_site1_1z92_sap_8_mot_6e12af4a48b4634929ba45889b8be782_0001_af2_000000007_0001_36_50_H_._HHH_b2_01103_0001_0000200009_0000001_0_0001 (protein)
chain: SSSSDRLEKALRIAVRVAVEAAGLSPEQQEELEELARELAERGVDPLEAIKILDKRALELSSSSS
B3: il2ra_site2_2erj_normal_mot_c2bf78bdce995293a161f7082e24b401_0001_af2_000000082_0001_17_32_H_._HHH_b2_07485_0001_0000200012_0000001_0 (protein)
chain: SSSSSEEEEEIEKLIRELEEAIERGDLEEAYRLANRALHLISKLGDEELQELLSETLERASSSSS
B4: il2ra_site1_2b5i_sap_10_mot_HHH_b2_07920_000000157_0001_21_37_H_._HHH_b2_04490_0001_0000100001_0000001_0_0001_af2pred_dldesign_0_af2pred (protein)
chain: SIEDVISEVIEKGLLDEDEEAELLRLVVDLIYKKDPRLEEYKKKLQEAVEKEDGELVRKIIEELK
B5: il2ra_site2_2erj_sap_23_mot_dcd9809507f71d420582ead1f1e1bbb3_0001_000000226_0001_37_50_H_._84744eca03b61d784461fbba3329deeb_0001_0001_0001000036_0000001_0_0001 (protein)
chain: DDERLIERYIELQAELAGVPQFEVELENNTITVHVDGDDEAARLLLEAVRHALEALGIPFEVTEK
B6: il2ra_site1_3nfp_sap_19_mot_HHH_b1_00333_af2_000000057_0001_25_41_H_._7e097e0b0376360e4b772b7e6a761d91_0001_af2_0001_0000200009_0000001_0_0001 (protein)
chain: DIRKLIQFIAEKDNVPPEEAAEWLVKSWEKTAKVPPEEAIKVLIERAREAGDPEIVEVLEELLRK
B7: il2ra_site2_2erj_normal_mot_9f5b7fc4e9d6b3037bff8dd1fb84ce76_0001_000000082_0001_16_32_H_._HHH_b2_05667_0001_0000100006_0000001_0_af2pred_0001_1_af2pred_swapped (protein)
chain: SSSSSSSEVEEEVERLLEEAERIPDPKKARKLLVRAHYVARKNNNDELKELVHKVDEELSSSSSS
B8: il2ra_site2_2erj_normal_mot_HHH_b1_05749_af2_000000010_0001_23_39_H_._HHH_b1_03892_af2_0001_0000400015_0000001_1 (protein)
chain: SSSSDERLRQLYELAVELLRLLFEGDEERIEELLREVRELAEELQSDVARELVEEVEKKLSSSSS
B9: il2ra_site1_2b5i_normal_mot_HHH_b2_02740_000000236_0001_1_21_H_._HHH_b1_04624_0001_0000400027_0000001_0_1_af2pred_dldesign_0_af2pred (protein)
chain: SSSSSLRREAVETVEALLKAGKTDEAREVVDELRRLAEERQDPSLLRLVDFLEEAIEIAEESSSS
B10: il2ra_site1_2b5i_sap_9_mot_HHH_b1_06948_af2_000000176_0001_3_20_H_._HHH_b1_01234_0001_0000100007_0000001_0_0001_af2pred_dldesign_0_af2pred (protein)
chain: SSSSSRREILEEVEELYKQAKTDEQQELVEEGYKKILAAIRKGDLEGARKLLEELKEKLESSSSS
B11: il2ra_site2_2erj_sap_25_mot_dcd9809507f71d420582ead1f1e1bbb3_0001_000000226_0001_37_50_H_._HHH_b2_03591_af2_0001_0000300010_0000001_0_0001 (protein)
chain: SSSSDEELRRLYKLLAELLRLRAENDREEFEKIYEEAEELARELNSPVVEKLLEFLEKEINSSSS
B12: il2ra_site1_2b5i_sap_12_mot_HHH_b2_04373_af2_000000166_0001_1_14_H_._HHH_b1_04169_0001_0000700025_0000001_0_0001_af2pred_0001_af2pred (protein)
chain: SSSSSEEVIELLHEANELFKQGNHEEAEKVLREAEELARELNNRSARKLIEAALRIIEEWLSSSS
B13: il2ra_site1_1z92_sap_13_mot_HHH_b2_04969_af2_000000243_0001_39_51_H_._HHH_b2_07732_af2_0001_0000100009_0000001_0_0001_af2pred_0001_af2pred (protein)
chain: SIEEDLELSLRRGIPPEQIVRVAIRTLESDGIPPEEAIELVLEAARKLNDPELEEIAEELLRKLP
B14: il2ra_site1_2b5i_normal_mot_HHH_b2_00231_000000175_0001_20_36_H_._HHH_b2_07547_0001_0000100002_0000001_0_af2pred_0001_af2pred (protein)
chain: SSSSDVWELYLRASRLFLRGNPEEAERLLEEAIELAERLGDPEIAKQLEEMLRHVRRSLSSSSSS
B15: il2ra_site1_2b5i_normal_mot_HHH_b1_01949_af2_000000166_0001_1_19_H_._HHH_b2_06657_af2_0001_0000100008_0000001_0_af2pred_0001_af2pred (protein)
chain: SSSSDEEVHEVTELYREASELFRRGNQEQARKLLEEALELAEKAGDEVAVRDLEHILERLKSSSS
B16: il2ra_site2_2erj_normal_mot_ems_3hC_1315_af2_000000245_0001_45_63_H_._HHH_b1_05944_af2_0001_0000200026_0000001_0 (protein)
chain: SSSSSELEEFIRELVEEFNLSEEAKEALERTAEIAKEQGVDEEYIKLFLRRLAEELEEQASSSSS
B17: il2ra_site2_2erj_normal_mot_HHH_b1_03107_000000098_0001_39_52_H_._HHH_b1_04164_0001_0000100006_0000001_0 (protein)
chain: SSSSDKEIWEEVAELLLELAELFRRGDEERARELLEEAEELAKELNSDALERYIRFVERDLSSSS
B18: il2ra_site1_1z92_normal_mot_108be8bf5286040dcbfed5edda487183_0001_000000086_0001_19_33_H_._26f414d7b340708b6e9383f836a3294b_0001_0001_0000300045_0000001_0_af2pr … (protein)
chain: PKVLEKLFEFARKEGAPPELVARHLLHALKKLGKPPEEVERLVREVLEELLGDPEEAKRVLEEAK
B19: il2ra_site2_2erj_sap_28_mot_HHH_b2_01204_af2_000000056_0001_19_34_H_._HHH_b2_03542_af2_0001_0000200007_0000001_0_0001 (protein)
chain: SSSSDADELAIEAVEALIRLARNGNEEEARELAEEVRKELEELGDPNLARFIELALRDLRSSSSS

Each binder was assayed against il2ra, P01589 (assay: yeast display titration).

Apparent Kd, inactive:
B1 no binding seen, B2 no binding seen, B3 no binding seen, B4 no binding seen, B5 no binding seen, B6 no binding seen, B7 no binding seen, B8 no binding seen, B9 no binding seen, B10 no binding seen, B11 no binding seen, B12 no binding seen, B13 no binding seen, B14 no binding seen, B15 > 2.63 nM, B16 no binding seen, B17 no binding seen, B18 no binding seen, B19 no binding seen
